Among the data in article doi:10.1101/2024.04.01.586839 are binding values, retold here.

The target of this experiment is T1, HA-tagged human HHIP (hedgehog interacting protein) (human) (UniProt Q96QV1).
T1 sequence: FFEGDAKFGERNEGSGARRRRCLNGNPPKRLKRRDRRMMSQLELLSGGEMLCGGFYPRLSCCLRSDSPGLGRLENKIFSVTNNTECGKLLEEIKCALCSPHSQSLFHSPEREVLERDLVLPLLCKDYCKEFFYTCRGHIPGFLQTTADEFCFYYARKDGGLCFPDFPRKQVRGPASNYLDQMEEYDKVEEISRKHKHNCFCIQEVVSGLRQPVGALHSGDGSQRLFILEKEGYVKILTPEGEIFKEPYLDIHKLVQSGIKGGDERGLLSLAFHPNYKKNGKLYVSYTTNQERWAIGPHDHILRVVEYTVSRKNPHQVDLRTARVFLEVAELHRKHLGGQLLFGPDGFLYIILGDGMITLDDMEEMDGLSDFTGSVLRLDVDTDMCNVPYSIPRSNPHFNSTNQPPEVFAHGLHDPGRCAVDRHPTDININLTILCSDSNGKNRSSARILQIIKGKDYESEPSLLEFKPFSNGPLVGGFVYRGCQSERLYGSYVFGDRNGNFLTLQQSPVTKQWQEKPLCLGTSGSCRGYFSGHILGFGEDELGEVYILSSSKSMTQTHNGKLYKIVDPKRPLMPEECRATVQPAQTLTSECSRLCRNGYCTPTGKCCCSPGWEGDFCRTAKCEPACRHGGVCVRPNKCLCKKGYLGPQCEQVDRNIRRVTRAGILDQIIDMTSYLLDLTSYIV
In words: co-IP.

No constants are given. Whether binding was seen depends on the method and setting. In cells and extracts the contact can be indirect. Some results given as binding are weak or reduced against the parent protein; the word gives no strength. Where a sequence is shown, tags or fusion partners need not be part of it.

Consider TP53 (from UniProt P04637 1-393), for which the binding entry is recorded as “binds”.
